{"source": "paper PMC9581156", "binders": {"B1": {"name": "Vacuolar protein sorting 25 (endogenous) (protein, UniProt Q9BRG1 1-176)", "chain": "MAMSFEWPWQYRFPPFFTLQPNVDTRQKQLAAWCSLVLSFCRLHKQSSMTVMEAQESPLFNNVKLQRKLPVESIQIVLEELRKKGNLEWLDKSKSSFLIMWRRPEEWGKLIYQWVSRSGQNNSVFTLYELTNGEDTEDEEFHGLDEATLLRALQALQQEHKAEIITVSDGRGVKFF"}}, "molecular_target": "GFP-tagged EV71 3A protein (expressed in RD cells) (human enterovirus 71 (EV71))", "assay": "affinity purification with mass spectrometry; RD cells transfected with GFP or GFP-3A; lysates immunoprecipitated with anti-GFP antibody; SDS-PAGE, Coomassie staining; precipitated proteins analysed by mass spectrometry", "note": "No constants are given. Whether binding was seen depends on the method and setting. Binding seen in cells or lysates may run through a third protein. Here binding means that the protein was enriched with, or labelled near, the bait; the list need not be complete."}
{"binder": "B1", "values": [{"measurement": "binding", "result": "binds"}]}
